{"sequences": {"note": "The chains behind the UniProt entries cited, without tags or fusion partners. Where a name states a change or a piece, a line headed by the entry shows the natural chain unless it says otherwise.", "UniProt Q13131": "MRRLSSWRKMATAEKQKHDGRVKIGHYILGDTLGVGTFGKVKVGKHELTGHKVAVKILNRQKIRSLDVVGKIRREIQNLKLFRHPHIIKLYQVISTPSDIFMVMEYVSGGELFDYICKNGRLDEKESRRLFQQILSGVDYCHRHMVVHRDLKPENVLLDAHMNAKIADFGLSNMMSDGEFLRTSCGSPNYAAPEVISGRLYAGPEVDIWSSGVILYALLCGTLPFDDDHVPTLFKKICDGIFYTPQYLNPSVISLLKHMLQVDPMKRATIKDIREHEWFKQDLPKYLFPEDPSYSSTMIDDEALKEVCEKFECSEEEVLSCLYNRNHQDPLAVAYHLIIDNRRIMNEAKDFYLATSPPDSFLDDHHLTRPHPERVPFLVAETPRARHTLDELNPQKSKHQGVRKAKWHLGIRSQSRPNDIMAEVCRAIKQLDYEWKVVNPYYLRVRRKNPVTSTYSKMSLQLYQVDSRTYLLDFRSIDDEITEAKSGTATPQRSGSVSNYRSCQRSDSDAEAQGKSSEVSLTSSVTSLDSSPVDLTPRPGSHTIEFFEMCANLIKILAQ", "UniProt Q9Y478": "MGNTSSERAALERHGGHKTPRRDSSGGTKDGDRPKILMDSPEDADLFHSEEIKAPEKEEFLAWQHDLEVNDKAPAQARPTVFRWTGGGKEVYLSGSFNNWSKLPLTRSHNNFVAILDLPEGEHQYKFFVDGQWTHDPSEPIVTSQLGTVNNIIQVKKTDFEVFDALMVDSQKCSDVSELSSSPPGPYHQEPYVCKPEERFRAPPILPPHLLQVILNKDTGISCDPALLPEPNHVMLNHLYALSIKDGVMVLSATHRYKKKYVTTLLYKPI"}, "source": "patent US8329914B2", "about": "“Cyclic benzimidazole derivatives useful as anti-diabetic agents” (Merck Sharp & Dohme Corp, priority 2008, dated 2012)", "biological_target": "recombinant human AMPK complex 1 (containing α1β1γ1) (Homo sapiens, UniProt Q13131+Q9Y478)", "assay": "AMPKSAMSF (in vitro AMPK activation assay)", "type": "biochemical", "conditions": "recombinant human AMPK complex 1 (α1β1γ1)", "procedure": "The recombinant human AMPK complex 1 (containing α1β1γ1) was obtained from baculovirus expression system. Recombinant viruses were generated by cotransfection of AMPK/pBacPak9 clones with Baculogold baculovirus DNA (Pharmingen) in spodoptera frugiperda 21 cells according to the manufacturer's instructions. Each round of virus amplification was performed for 5 days in Grace's medium containing 10% serum. Virus that had been subjected to three rounds of amplification was used for all protein production procedures. To express the AMPK complex, sf21 cells were adapted to serum free medium (SF900 II, Invitrogen) by sequential dilution from serum containing stocks into SF900II medium and maintained in shaker flasks at 90 rpm at 27° C. The recombinant AMPK enzyme complex was produced by triple infection, one recombinant virus for each of the subunits, in sf21 cells under serum free conditions. Cells were infected in log phase, 1×10^6 cells/ml, at a multiplicity of infection of ˜5. Cells were harvested by centrifugation at 10,000×g for 15 minutes after 72 hours of infection with viruses. […]\nThe total in vitro AMPK activation assay volume is 50 μl in a 96-well plate. […] The counts per minute from the basal activity (the reaction without activator) was subtracted from each well and the data were expressed as % maximum AMP activation followed by EC50 calculation.", "note": "Some results were stated once for a whole list of compounds, not compound by compound.", "data": [{"smiles": "CCOP(=O)(CSc1nc2cc(-c3ccc(Br)cc3)c(Cl)cc2[nH]1)OCC", "note": "[Example 13]", "values": [{"measurement": "EC50", "value": "< 10", "unit": "µM"}]}]}
